Results reported in patent EP3539984A1.
Positions count from the first letter of the chain named. Results are given in words; binding and its absence hold for the method and conditions named. Some entries that bind do so weakly or less than the wild type. One block for each binder: values may come before it.

Chains of the proteins cited; added tags and fusions are not shown. Lines headed by an entry give the natural chain unless they say otherwise; changes in a name come on top.
UniProt P07333: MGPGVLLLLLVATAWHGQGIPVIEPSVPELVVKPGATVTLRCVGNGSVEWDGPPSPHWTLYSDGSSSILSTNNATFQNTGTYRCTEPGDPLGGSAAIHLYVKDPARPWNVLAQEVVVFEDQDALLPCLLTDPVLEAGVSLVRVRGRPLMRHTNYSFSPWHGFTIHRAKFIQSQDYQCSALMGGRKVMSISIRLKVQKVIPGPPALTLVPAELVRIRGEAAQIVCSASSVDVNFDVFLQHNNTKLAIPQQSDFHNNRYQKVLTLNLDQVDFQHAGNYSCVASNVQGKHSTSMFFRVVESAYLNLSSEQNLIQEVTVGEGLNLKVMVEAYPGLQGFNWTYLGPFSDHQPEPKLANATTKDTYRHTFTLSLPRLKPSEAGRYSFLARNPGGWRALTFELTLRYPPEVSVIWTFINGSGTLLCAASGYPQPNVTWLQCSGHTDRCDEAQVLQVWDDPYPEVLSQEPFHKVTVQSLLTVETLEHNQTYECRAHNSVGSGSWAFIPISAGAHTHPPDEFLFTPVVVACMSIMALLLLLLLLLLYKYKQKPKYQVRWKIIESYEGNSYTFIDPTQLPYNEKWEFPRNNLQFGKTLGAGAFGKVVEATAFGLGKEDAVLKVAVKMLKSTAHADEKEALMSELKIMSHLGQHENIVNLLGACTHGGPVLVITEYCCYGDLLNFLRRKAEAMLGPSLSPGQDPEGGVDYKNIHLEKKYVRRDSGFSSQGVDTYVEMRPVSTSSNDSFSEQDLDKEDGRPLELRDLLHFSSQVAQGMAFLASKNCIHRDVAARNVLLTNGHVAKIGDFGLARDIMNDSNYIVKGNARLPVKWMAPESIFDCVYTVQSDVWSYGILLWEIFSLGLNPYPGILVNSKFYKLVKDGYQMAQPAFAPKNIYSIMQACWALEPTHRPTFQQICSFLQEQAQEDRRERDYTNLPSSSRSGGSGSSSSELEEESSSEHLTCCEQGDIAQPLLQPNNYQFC

Target: human CSF1R ECD (human) (UniProt P07333)
Assay: binding test on CSF1R ECD, as described in WO 2011/140249

B1: huAb7 (antibody, human IgG4 S228P, kappa, V domains shown)
VH: QVQLVQSGAEVKKPGSSVKVSCKASGYTFSDFNIHWVRQAPGQGLEWMGYINPYTDVTVYNEKFKGRVTITSDKSTSTAYMELSSLRSEDTAVYYCASYFDGTFDYALDYWGQGTLVTVSS
VL: EIVLTQSPATLSLSPGERATLSCRASESVDNYGLSFMNWYQQKPGQAPRLLIYTASNLESGIPARFSGSGSGTDFTLTISSLEPEDFAVYYCQQSKELPWTFGQGTKVEIKR
binding: binds

B2: huAb9 (antibody, human IgG4 S228P, kappa, V domains shown)
VH: B1 VH
VL: B1 VL with L4V, Y40F, G72R
binding: binds

B3: huAb11 (antibody, human IgG4 S228P, kappa, V domains shown)
VH: B1 VH with M48I, V68A, I70L
VL: B1 VL with G72R
binding: binds

B4: huAb12 (antibody, human IgG4 S228P, kappa, V domains shown)
VH: B1 VH with M48I, V68A, I70L
VL: B1 VL with L4V, Y40F, G72R
binding: binds

B6: huAb8 (antibody, human IgG4 S228P, kappa, V domains shown)
VH: B1 VH
VL: B1 VL with G72R
binding: binds

B8: huAb10 (antibody, human IgG4 S228P, kappa, V domains shown)
VH: B1 VH with M48I, V68A, I70L
VL: B1 VL
binding: binds

The remaining lines, values ahead:

binding: binds
B5: huAb13 (antibody, human IgG4 S228P, kappa, V domains shown)
VH: QVQLVQSGAEVKKPGSSVKVSCKASGYIFTDYNMHWVRQAPGQGLEWMGEINPNNGVVVYNQKFKGRVTITVDKSTSTAYMELSSLRSEDTAVYYCTRALYHSNFGWYFDSWGQGTLVTVSS
VL: B1 VL with R24K, E27Q, N31Y, Y32D, L34D, F36H, S95G, K96N, L98D

binding: binds
B7: huAb15 (antibody, human IgG4 S228P, kappa, V domains shown)
VH: B5 VH with R67T, V68T, I70L
VL: B1 VL with R24K, E27Q, N31Y, Y32D, L34D, F36H, S95G, K96N, L98D

binding: binds
B9: huAb14 (antibody, human IgG4 S228P, kappa, V domains shown)
VH: B5 VH
VL: DIVLTQSPATLSLSPGERATLSCKASQSVDYDGDSHMNWYQQKPGQAPRLLIYTASNLESGIPARFSGSGSGADFTLTISSLEPEDFAVYYCQQGNEDPWTFGQGTKVEIKR

binding: binds
B10: huAb16 (antibody, human IgG4 S228P, kappa, V domains shown)
VH: B5 VH with R67T, V68T, I70L
VL: B9 VL
